Source: paper PMC8405816
Results are given in words; binding and its absence hold for the method and conditions named. In cells and extracts the contact can be indirect. A yes stands for co-enrichment or nearness to the bait. Other partners may have been found. For some of these results: Where a sequence is shown, tags or fusion partners need not be part of it.

Chains of the proteins cited; added tags and fusions are not shown.
UniProt P12956: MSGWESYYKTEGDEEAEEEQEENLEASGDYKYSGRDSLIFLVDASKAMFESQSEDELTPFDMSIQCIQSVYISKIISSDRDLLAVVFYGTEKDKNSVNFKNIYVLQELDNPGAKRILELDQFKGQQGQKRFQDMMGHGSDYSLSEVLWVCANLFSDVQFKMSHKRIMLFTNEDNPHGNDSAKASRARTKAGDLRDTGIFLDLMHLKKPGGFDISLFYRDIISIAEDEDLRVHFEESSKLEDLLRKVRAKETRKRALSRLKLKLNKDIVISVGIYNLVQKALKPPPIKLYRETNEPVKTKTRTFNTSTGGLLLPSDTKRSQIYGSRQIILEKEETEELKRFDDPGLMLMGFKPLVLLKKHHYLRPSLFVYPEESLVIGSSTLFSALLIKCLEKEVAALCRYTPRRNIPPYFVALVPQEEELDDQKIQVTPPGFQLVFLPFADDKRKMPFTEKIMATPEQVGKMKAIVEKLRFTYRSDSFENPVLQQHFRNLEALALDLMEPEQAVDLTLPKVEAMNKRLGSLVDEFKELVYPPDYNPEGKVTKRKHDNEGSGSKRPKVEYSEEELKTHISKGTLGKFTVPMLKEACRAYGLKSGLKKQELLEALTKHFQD
UniProt P13010: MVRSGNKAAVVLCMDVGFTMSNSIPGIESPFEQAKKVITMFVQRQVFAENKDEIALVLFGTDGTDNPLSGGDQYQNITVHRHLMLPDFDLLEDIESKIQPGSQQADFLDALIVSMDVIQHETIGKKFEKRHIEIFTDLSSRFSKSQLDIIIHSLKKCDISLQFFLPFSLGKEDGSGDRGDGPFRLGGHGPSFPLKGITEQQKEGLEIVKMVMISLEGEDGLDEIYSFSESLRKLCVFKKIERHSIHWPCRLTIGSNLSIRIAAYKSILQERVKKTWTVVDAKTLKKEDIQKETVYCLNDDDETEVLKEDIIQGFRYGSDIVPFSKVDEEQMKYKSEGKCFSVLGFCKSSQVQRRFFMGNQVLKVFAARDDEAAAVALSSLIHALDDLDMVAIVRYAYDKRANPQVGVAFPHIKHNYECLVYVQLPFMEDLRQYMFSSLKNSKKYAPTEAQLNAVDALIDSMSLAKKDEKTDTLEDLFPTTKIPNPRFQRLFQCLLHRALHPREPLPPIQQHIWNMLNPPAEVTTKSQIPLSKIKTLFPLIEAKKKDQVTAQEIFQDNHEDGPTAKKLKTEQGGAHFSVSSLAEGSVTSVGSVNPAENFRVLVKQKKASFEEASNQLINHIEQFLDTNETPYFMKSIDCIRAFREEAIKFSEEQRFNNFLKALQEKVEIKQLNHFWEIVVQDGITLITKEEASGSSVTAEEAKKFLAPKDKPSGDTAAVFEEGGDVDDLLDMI

Columns and labels:
[1] = target: T1, VAV2 (endogenous) (human (endogenous in KYSE30, KYSE150, KYSE450)) (UniProt P52735); assay: affinity purification with mass spectrometry; lysates of natural KYSE30 and KYSE450 cells, immunoprecipitated with anti-VAV2 antibody, mass spectrometry
T1 sequence: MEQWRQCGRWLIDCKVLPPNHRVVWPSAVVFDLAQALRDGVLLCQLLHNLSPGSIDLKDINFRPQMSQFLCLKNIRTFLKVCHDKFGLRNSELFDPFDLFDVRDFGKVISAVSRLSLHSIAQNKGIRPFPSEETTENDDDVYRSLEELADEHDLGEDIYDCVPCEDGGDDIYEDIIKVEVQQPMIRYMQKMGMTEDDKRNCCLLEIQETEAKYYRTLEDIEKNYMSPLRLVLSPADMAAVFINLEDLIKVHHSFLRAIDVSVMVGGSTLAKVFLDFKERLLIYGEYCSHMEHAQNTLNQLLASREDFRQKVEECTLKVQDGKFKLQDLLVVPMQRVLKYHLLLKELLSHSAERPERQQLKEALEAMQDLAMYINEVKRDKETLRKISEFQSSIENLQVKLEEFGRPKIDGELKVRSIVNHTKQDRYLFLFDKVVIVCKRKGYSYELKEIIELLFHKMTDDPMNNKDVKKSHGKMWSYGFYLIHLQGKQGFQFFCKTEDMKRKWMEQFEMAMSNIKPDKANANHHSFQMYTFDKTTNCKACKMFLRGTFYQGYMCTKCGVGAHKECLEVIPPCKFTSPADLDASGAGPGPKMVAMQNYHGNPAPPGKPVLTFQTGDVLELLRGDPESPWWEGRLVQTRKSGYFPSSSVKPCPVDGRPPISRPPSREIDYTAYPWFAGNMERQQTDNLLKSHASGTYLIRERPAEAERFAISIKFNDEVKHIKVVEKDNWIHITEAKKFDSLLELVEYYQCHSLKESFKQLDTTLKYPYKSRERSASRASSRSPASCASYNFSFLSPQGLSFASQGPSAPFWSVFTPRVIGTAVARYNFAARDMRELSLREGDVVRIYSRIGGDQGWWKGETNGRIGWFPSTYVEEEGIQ

FLAG-tagged VAV2 = target: T2, FLAG-tagged VAV2 (UniProt P52735); assay: affinity purification with mass spectrometry; lysates of KYSE150 cells overexpressing FLAG-VAV2, immunoprecipitated with anti-FLAG antibody (IgG as negative control), mass spectrometry
T2 sequence: T1 sequence

Row | binding [1] | binding (FLAG-tagged VAV2) | Substance
1 | binds | binds | Ku70 (endogenous) (from UniProt P12956 1-609)
2 | binds | binds | Ku80 (endogenous) (from UniProt P13010 1-732)
